{"sequences": {"note": "Sequences of proteins named here, by UniProt entry; tags and fusion partners are left off.", "UniProt P21554": "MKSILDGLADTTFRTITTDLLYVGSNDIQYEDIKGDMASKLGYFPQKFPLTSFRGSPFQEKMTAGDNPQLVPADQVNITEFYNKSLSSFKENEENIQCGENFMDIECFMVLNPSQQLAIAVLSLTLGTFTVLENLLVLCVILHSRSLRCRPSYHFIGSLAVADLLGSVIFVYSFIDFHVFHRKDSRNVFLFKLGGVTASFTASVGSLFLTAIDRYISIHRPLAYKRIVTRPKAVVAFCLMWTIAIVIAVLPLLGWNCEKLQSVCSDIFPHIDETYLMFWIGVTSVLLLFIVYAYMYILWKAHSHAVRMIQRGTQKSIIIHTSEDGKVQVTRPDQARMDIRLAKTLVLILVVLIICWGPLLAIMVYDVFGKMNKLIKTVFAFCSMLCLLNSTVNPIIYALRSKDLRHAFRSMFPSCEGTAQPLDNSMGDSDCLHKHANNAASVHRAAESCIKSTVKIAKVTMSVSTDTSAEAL", "UniProt P32121": "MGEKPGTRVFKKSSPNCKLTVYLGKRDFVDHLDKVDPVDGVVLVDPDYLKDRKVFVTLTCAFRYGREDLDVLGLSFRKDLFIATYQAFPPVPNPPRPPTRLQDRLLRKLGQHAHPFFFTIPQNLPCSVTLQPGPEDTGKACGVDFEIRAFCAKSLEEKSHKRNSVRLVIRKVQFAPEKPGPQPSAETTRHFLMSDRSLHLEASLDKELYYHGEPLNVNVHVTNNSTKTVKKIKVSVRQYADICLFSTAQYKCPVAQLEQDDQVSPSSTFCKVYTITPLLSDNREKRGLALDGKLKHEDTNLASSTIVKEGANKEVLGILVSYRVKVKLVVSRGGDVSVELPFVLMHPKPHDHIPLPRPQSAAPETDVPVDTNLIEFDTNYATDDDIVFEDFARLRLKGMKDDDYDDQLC"}, "source": "paper PMC11142349", "key": {"[1]": {"molecular_target": "CB1-NlucC (human) (UniProt P21554)", "experiment": "FRET or BRET; as a2, CB1-NlucC and NES-venus-β-arrestin2, with L759633 as the agonist"}, "[2]": {"molecular_target": "CB1-NlucC (human) (UniProt P21554)", "experiment": "FRET or BRET; as a2, CB1-NlucC and NES-venus-β-arrestin2, with Cannabinol as the agonist"}, "[3]": {"molecular_target": "CB1-NlucC (human) (UniProt P21554)", "experiment": "FRET or BRET; HEK293-TR cells stably co-expressing CB1-NlucC and NES-venus-mGsi or NES-venus-β-arrestin2; agonists (THC, analogs, 2AG, AEA) added, 37 °C, furimazine 10 μM, HBSS with 0.5% BSA and 5 mM HEPES; responses normalised to 2AG"}}, "note": "These are yes or no findings as the source states them, for the method shown. Binding seen in cells or lysates may run through a third protein. Some results given as binding are weak or reduced against the parent protein; the word gives no strength.", "data": [{"substance": "NES-venus-β-arrestin2 (from UniProt P32121 1-409)", "values": [{"measurement": "binding", "setting": "[1]", "value": "binds weakly"}, {"measurement": "binding", "setting": "[2]", "value": "no binding (condition: with Cannabinol as the agonist)"}, {"measurement": "binding", "setting": "[3]", "value": "binds"}]}]}
